From paper PMC9257163, “Fluorescence Detection of Cancer Stem Cell Markers Using a Sensitive Nano-Aptamer Sensor”
For at least one entry, the source does not settle the construct or the ends of the probe. For part of these data: No signal at the amounts used counts as a negative. For part of these data: At least one result comes from cells or an extract, where the contact may be indirect. For part of these data: At least one verdict rests on a figure or table, not on a statement of the authors.

The chains behind the UniProt entries cited, without tags or fusion partners. Residues count along the entry.
UniProt O43490, 21-865: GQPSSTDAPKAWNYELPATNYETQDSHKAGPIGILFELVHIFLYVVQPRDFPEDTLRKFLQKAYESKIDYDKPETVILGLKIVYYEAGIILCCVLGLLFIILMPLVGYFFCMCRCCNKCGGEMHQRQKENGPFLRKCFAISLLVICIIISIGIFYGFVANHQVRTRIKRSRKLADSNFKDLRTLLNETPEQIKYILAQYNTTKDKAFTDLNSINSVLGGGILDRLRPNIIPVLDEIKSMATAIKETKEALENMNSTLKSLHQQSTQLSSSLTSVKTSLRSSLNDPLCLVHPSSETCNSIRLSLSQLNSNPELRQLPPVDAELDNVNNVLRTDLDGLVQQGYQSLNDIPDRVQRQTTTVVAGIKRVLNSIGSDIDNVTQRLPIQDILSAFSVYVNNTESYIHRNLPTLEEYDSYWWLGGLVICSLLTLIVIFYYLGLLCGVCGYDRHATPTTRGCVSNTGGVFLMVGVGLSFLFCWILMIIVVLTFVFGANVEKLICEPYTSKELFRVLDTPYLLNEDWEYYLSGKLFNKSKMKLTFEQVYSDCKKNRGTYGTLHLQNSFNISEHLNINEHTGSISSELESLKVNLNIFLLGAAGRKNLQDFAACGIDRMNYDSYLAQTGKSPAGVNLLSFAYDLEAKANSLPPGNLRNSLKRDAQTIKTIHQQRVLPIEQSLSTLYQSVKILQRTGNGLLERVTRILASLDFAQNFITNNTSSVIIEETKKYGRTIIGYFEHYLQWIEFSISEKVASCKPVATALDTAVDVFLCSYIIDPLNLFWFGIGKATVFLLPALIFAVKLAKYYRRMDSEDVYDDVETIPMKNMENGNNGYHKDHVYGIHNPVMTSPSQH

Experiments:
CD133 on A549 cells = CD133 on A549 cells (UniProt O43490); test: confocal fluorescence imaging of cells; settings: 8 h, sensor annealed from 95 °C to room temperature, binding buffer, protein on the cell surface
SCC = test: competition (FRET turn-on displacement of AuNPs-ssRNA); settings: 2 uM protein, recovery around 5% vs 68% for CD133; 5'-NH2 on aptamer; 5'-SH on ssRNA; QD-aptamers redispersed in PBS; sensor annealed from 95 °C to room temperature; binding buffer
PIN 5 = test: as above; settings: 2 uM protein; 5'-NH2 on aptamer; 5'-SH on ssRNA; QD-aptamers redispersed in PBS; sensor annealed from 95 °C to room temperature; binding buffer
actin = test: as above; settings: 2 uM protein; 5'-NH2 on aptamer; 5'-SH on ssRNA; QD-aptamers redispersed in PBS; sensor annealed from 95 °C to room temperature; binding buffer
CD44 = test: as above; settings: 2 uM protein; 5'-NH2 on aptamer; 5'-SH on ssRNA; QD-aptamers redispersed in PBS; sensor annealed from 95 °C to room temperature; binding buffer

Sequence | binding result (CD133 on A549 cells; QDs without aptamer gave weak signal, 5'-NH2, QD-aptamers redispersed in PBS, label: CdSe/ZnS QD at 5' end) | binding result (CD133 on A549 cells; blocked by free aptamer pretreatment, no signal on CD133-negative HuH-7, 5'-NH2 on aptamer, 5'-SH on ssRNA, QD-aptamers redispersed in PBS) | binding result (SCC) | binding result (PIN 5) | binding result (actin) | binding result (CD44)
CCCUCCUACAUAGGG [QD-CD133 aptamer] | binds |  |  |  |  | 
CCCUCCUACAUAGGG / CCCUAUG [CD133 aptamer sensor (QD-aptamer hybridized to AuNPs-ssRNA)] |  | binds | no binding | no binding | no binding | no binding
